Data: PubChem BioAssay AID1471 (National Center for Advancing Translational Sciences (NCATS), 2008)
Screen size: about 230,000 compounds; about 310 (0.13%) were called active. The inconclusive results got no clear call from the source; some entries with a clear call stand among them for comparison. Calls follow the shape of the dose curve; as a rule, active = well fitted activation curve with a large enough effect; inconclusive = small, poorly fitted or top-dose-only effect; inactive = no such curve, though single readings can be large or run the other way. A potency beside an inconclusive call is a rough fit, not a confirmed value.

test: qHTS Multiplex Assay to Identify Dual Action Probes in a Cell Model of Huntington: Cytoprotection (ATP); conditions: PC12 HTT-Q103 induced, ATP luminescence, 40 h; cytoprotection (ATP increase): at 56.4 µM (top of the series) unless noted; also: nearly all actives have a fitted effect of over 45% in size;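 as to cytoprotection (ATP increase): toxic huntingtin expression switched on by the ecdysone agonist tebufenozide; % of control where 0% means no effect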
Outline: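 Cells were plated at 1500 per well in phenol red-free DMEM with 5% equine and 5% calf serum. Tebufenozide (100 nM final) and compounds were added, then ATPlite reagent, and luminescence was read.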
Potency is read from the fitted curve at half-maximal effect.

Row | Compound | Potency | cytoprotection (ATP increase)
1 | COc1cccc(CS(=O)(=O)c2nnnn2CC(C)C)c1 | inconclusive: 3160 nM [activator, full curve, poor fit] | –
2 | CCCCn1nnnc1SCC(=O)N1CCCC1 | inconclusive: 447 nM [activator, single point] | –
3 | CCOC1(/N=C(\C)NS(=O)(=O)c2ccc(Cl)cc2)C(C)=CC(=O)C=C1C | inactive | –
4 | Nc1nc(-c2ccccc2)c(N=Nc2ccc(Cl)cc2)s1 | – | inactive: -4.63% [at 10 µM]
5 | COCCN(C(=O)CSc1nnc(Nc2ccccc2F)s1)c1c(N)n(Cc2ccccc2)c(=O)[nH]c1=O | inconclusive: 794 nM [activator, full curve, poor fit] | –
6 | O=c1c(CCc2ccccc2)nc2cnc(N3CCNCC3)nc2n1Cc1ccc(F)cc1 | inconclusive: 5010 nM [activator, partial curve] | –
7 | Cc1cccc(NC(=O)CCc2ccc(C)o2)c1 | inactive | –
8 | O=C(CCCCCNC(=O)c1ccccc1)N/N=C/c1ccc(O)cc1O | – | inactive: 10.5% [at 10 µM]
9 | CN(C)S(=O)(=O)c1cccc(NC(=O)COC(=O)c2cc(-c3cccc(Br)c3)nc3ccccc23)c1 | – | inactive: -34% [at 10 µM]
10 | CCc1cc2c(nc1CC)CCN(CC/C(C)=N/OC[C@@H](C)[C@H](OCc1ccccc1)C(C)C)C2 | inconclusive: 70.8 nM [activator, full curve] | –
11 | Cc1ccc(NC(=S)N(CCN(C)C)Cc2cc3cc(C)ccc3[nH]c2=O)cc1 | – | inactive: 14.4% [at 10 µM]
12 | O=C(CSc1ncccn1)NN=C1CCCCCCC1 | inactive | –
13 | O=C(O)[C@@H]1CCCN[C@H]1C(=O)O | inconclusive: 1.6 nM [activator, single point] | –
14 | C=C(C)CNC(=S)N/N=C(\C)c1ccc(-n2ccnc2)cc1 | inconclusive: 5620 nM [activator, single point] | –
15 | COc1ccccc1NS(=O)(=O)c1cc(NC(=O)Nc2ccccc2)ccc1N1CCCCC1 | – | inactive: -28.2% [at 10 µM]
16 | COc1ccc(CCN2C(=O)CC(Nc3ccc(N4CCOCC4)cc3)C2=O)cc1OC (stereo not drawn) | inactive | –
17 | O=[N+]([O-])c1ccc(NC(=S)NCCc2ccc(F)cc2)cc1 | – | inactive: 15% [at 10 µM]
18 | OCC1O[C@H](Oc2ccc(O)cc2)C(O)C(O)C1O (stereo partly drawn) | inconclusive: 35500 nM [activator, partial curve, poor fit] | –
19 | COc1ccccc1NC(=S)N(Cc1ccc(Cl)cc1)CC1CCC(C(=O)O)CC1 (stereo not drawn) | inconclusive: 35500 nM [activator, single point] | –
20 | O=C(NNc1nc(-c2ccccc2)cs1)c1ccccc1 | inconclusive: 562 nM [activator, partial curve] | –
21 | CC1(C)Cc2c(c(N3CCOCC3)nc3snc(Br)c23)CO1 | inconclusive: 35500 nM [activator, single point] | –
22 | COCCn1c(C)cc(C(=O)CN2CCCCC2)c1C | inconclusive: 35500 nM [activator, single point] | –
23 | COc1cccc(CNC(=O)Cn2cccc2)c1 | inconclusive: 35500 nM [activator, partial curve] | –

Row | Compound | Potency | cytoprotection (ATP increase)
24 | CCOC(=O)c1ccc(NC(=O)CSCC(=O)OCC(=O)c2ccccc2)cc1 | inconclusive: 1120 nM [activator, single point] | –
25 | COC(=O)CNC(c1ccccc1Cl)c1cc(Br)ccc1NS(=O)(=O)c1ccc(C)cc1 (stereo not drawn) | – | inactive: 19.2% [at 10 µM]
26 | CCCCC/C=C\CC1OC1CCCCCCCC(=O)O (stereo not drawn) | inactive | –
27 | O=C(CSc1ccccc1C(=O)O)NC1CCCCCC1 | inconclusive: 1780 nM [activator, partial curve] | –
28 | Cc1ccc(OCCN2CCN(C(=O)CCC(=O)Nc3nnc(CC(C)C)s3)CC2)cc1 | – | inactive: 37.3% [at 10 µM]
29 | N[C@@]1(C(=O)O)CN[C@@H](C(=O)O)C1 | inactive | –
30 | COCCNC(=O)C1(CC(C)C)C=CCN1C(=O)OC (stereo not drawn) | inconclusive: 35500 nM [activator, single point] | –
31 | CCOC(=O)CNC(=S)n1ncnc1N | inconclusive: 89.1 nM [activator, partial curve, poor fit] | –
32 | O=c1c(-c2ccccc2)nc2cnc(Oc3cccc(Cl)c3)nc2n1C1CC1 | inconclusive: 39800 nM [activator, single point] | –
33 | CCc1nnc(NS(=O)(=O)c2ccc(NC(=S)NC(=O)/C=C/c3ccc(C(C)C)cc3)cc2)s1 | inactive | –
34 | CC(C)(C)C(=O)N1N=C(c2cccc(NS(C)(=O)=O)c2)CC1c1cccs1 (stereo not drawn) | inconclusive: 5 nM [activator, full curve, poor fit] | –
35 | Cc1cc(Nc2ccc(F)cc2C)n2ncnc2n1 | inconclusive: 5620 nM [activator, single point] | –
36 | Cc1ccc2[nH]c3nc(CCCn4ccnc4-c4ccccc4)nnc3c2c1 | active: 1000 nM | –
37 | Cc1ccc(S(=O)(=O)CCc2nc3ccccc3n2CCC#N)cc1 | inconclusive: 28200 nM [activator, single point] | –
38 | Cc1nnc(SCC2=C(C(=O)O)N3C(=O)[C@@H](NC(=O)Cn4cnnn4)[C@@H]3SC2)s1 | inconclusive: 3160 nM [activator, single point] | –
39 | O=C(O)CCN1C(=O)/C(=C\c2ccc(-c3nc4ccccc4s3)o2)SC1=S | inconclusive: 7080 nM [activator, full curve, poor fit] | –
40 | COc1ccc(/C=N/NC(=O)CCCC(=O)NC2CCCCC2)cc1 | inactive | –
41 | CN1CCN(C(=O)c2cnn(-c3ccccc3)c2NC(=O)c2ccccc2)CC1 | inconclusive: 891 nM [activator, single point] | –
42 | Cc1cn([C@H]2C[C@H](N=[N+]=[N-])[C@@H](CO)O2)c(=O)[nH]c1=O | inconclusive: 1000 nM [activator, full curve, poor fit] | –
43 | O=C(Nc1cccc(F)c1)N1CCC2(CC1)CCN(C(=O)c1ccco1)CC2 | inconclusive: 2820 nM [activator, partial curve, poor fit] | –
44 | S=c1nc[nH]c2c1[nH]c1ccc(Cl)cc12 | – | inactive: 24.3% [at 10 µM]
45 | COc1ccc(C(=O)c2ccc(Br)cc2)c2ccccc12 | inconclusive: 631 nM [activator, single point] | –
46 | Cc1cccc(C(=O)NC2C(=O)NNC2c2ccc(Cl)cc2)c1 (stereo not drawn) | inconclusive: 11200 nM [activator, single point] | –

4 of the compounds above, as tab-separated lines:
Row	Compound	Potency	cytoprotection (ATP increase)
17	O=[N+]([O-])c1ccc(NC(=S)NCCc2ccc(F)cc2)cc1	–	inactive: 15% [at 10 µM]
23	COc1cccc(CNC(=O)Cn2cccc2)c1	inconclusive: 35500 nM [activator, partial curve]	–
26	CCCCC/C=C\CC1OC1CCCCCCCC(=O)O (stereo not drawn)	inactive	–
27	O=C(CSc1ccccc1C(=O)O)NC1CCCCCC1	inconclusive: 1780 nM [activator, partial curve]	–

Following part.

Row | Compound | Potency | cytoprotection (ATP increase)
47 | COC(=O)C1CCN(C(=O)c2cc3ccccc3oc2=O)CC1 | inconclusive: 5620 nM [activator, single point] | –
48 | NS(=O)(=O)Cc1noc2ccccc12 | inconclusive: 316 nM [activator, full curve, poor fit] | –
49 | Cc1ccc(NC(=S)NC2CCCC2)cc1 | inconclusive: 708 nM [activator, single point] | –
50 | CCN(CC(=O)Nc1ccc(C(C)=O)cc1)CC(=O)Nc1ccccc1C(F)(F)F | inconclusive: 35500 nM [activator, single point] | –
51 | Cc1ccc(/C(N)=N/OC(=O)c2ccco2)cc1 | inconclusive: 708 nM [activator, partial curve] | –
52 | CN1/C(=C\C=C2/SC(=S)N(CC(=O)O)C2=O)C(C)(C)c2ccccc21 | inconclusive: 1260 nM [activator, single point] | –
53 | O=C(N/N=C/c1ccncc1)c1cc([N+](=O)[O-])cc([N+](=O)[O-])c1 | inconclusive: 100 nM [activator, full curve, poor fit] | –
54 | COC(=O)C/C=C\[C@@H](C)[C@@H](/C=N\OC[C@@H](C)[C@H](OCc1ccccc1)C(C)C)NS(=O)(=O)c1ccc(C)cc1 | inconclusive: 1.6 nM [activator, full curve, poor fit] | –
55 | CC(=O)Nc1ccc(N=Nc2c(C)[nH]n(C(N)=S)c2=O)cc1 | inconclusive: 6310 nM [activator, single point] | –
56 | CC(NC(=O)c1ccc2c(c1)OCCO2)c1ccc(S(N)(=O)=O)cc1 (stereo not drawn) | inactive | –
57 | O=C(NCC1CCCO1)/C(=C\c1ccco1)NC(=O)c1ccc(Cl)cc1 (stereo not drawn) | inconclusive: 5620 nM [activator, single point] | –
58 | C[C@@H](COc1ccc(/C=C\c2ccccc2)cc1)[N+](C)(C)C | – | inactive: -15.8% [at 1.9 µM]
59 | Cc1nn(-c2ccccc2)c(C)c1C(=O)OCC(=O)NCc1ccco1 | – | inactive: -21.5% [at 10 µM]
60 | COc1cccc([C@@H]2Oc3ccc(OC)cc3C[C@H]2OC(=O)N[C@H](C)C2CCCCC2)c1 | inconclusive: 8910 nM [activator, partial curve, poor fit] | –
61 | COc1cccc(-c2cncnc2NCCc2cnc[nH]2)c1 | inconclusive: 199 nM [activator, partial curve] | –
62 | COc1ccc(NC(=S)N(CCc2nc3cc(C)c(C)cc3[nH]2)Cc2cccnc2)cc1 | inconclusive: 1260 nM [activator, single point] | –
63 | CCCNC(=O)CSc1nc(COc2ccccc2)nc2ccccc12 | inconclusive: 447 nM [activator, single point] | –
64 | COc1ccccc1OCc1ccc(C(=O)NCc2ccco2)o1 | – | inactive: -19.6% [at 0.074 µM]
65 | CN1CCN(C(=O)C2CCCCC2)CC1 | inconclusive: 112 nM [activator, full curve, poor fit] | –
66 | CN(C)S(=O)(=O)N(CC(=O)Nc1ccc2ccccc2c1)c1ccccc1 | active: 5620 nM | –
67 | NCC(=O)CCC(=O)O | inconclusive: 355 nM [activator, partial curve] | –
68 | CSc1nc(N)c2ncn([C@H]3O[C@H](COP(=O)(O)OP(=O)(O)OP(=O)(O)O)[C@@H](O)[C@@H]3O)c2n1 | inconclusive: 112 nM [activator, full curve] | –
